# Results published in article PMC4676720.
# The chains behind the UniProt entries cited, without tags or fusion partners.
# UniProt P50148: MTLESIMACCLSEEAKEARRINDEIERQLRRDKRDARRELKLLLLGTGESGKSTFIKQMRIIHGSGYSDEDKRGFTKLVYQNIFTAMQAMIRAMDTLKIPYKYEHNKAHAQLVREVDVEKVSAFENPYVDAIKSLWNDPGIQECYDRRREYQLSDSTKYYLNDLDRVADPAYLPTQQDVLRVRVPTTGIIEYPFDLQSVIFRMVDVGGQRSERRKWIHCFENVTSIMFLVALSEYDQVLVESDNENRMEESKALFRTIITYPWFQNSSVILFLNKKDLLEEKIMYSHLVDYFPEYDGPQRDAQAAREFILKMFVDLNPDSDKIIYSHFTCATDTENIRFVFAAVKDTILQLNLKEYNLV
# These are yes or no findings as the source states them, for the method shown. In cells and extracts the contact can be indirect. Some results given as binding are weak or reduced against the parent protein; the word gives no strength.
# Target: M1 muscarinic receptor, CFP-labelled (M1R-CFP) (UniProt P11229)
# Assay: FRET or BRET; live HEK293-tsA201 cells transfected with M1R-CFP, YFP-Gαq, Gβ1 and Gγ2; FRET measured in unpatched cells, patched cells without spermine and patched cells with 3 mM spermine in the pipette; room temperature
substance,measurement,value
"Gαq, YFP-labelled (YFP-Gαq) (from UniProt P50148 1-359)",binding,binds
